Results deposited as PubChem BioAssay AID1259254 (NCATS, 2017).
The deposit covers about 59,000 reagents; shown is a random part of them. In the full data, about 1,550 (2.6%) were called active. 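G2 share is only a proxy for re-replication; each gene was hit by three separate siRNAs, and active genes were retested.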 Reagents against one gene are numbered here. Not all columns of the deposit are shown. No sequences are given here. Not stated in the record: the amount of reagent.

Test: 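Genome-wide screen for genes that prevent DNA re-replication in cancer cells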 (primary screen)
Cell system: human HCT116 colorectal cancer cells
Reagents: single siRNA against human genes
Timing: 3 days
Measurement: 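Imaged Hoechst DNA stain sorts each cell into a cycle phase by DNA amount; per plate, G2 fraction set to 0% for non-targeting and 100% for GMNN siRNA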
Direction: G2 robust z-score and G2 cells, % of GMNN control: higher = more G2 cells, more excess DNA replication
Rule for the call: 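Active siRNAs have a G2 robust z of 5 or more median absolute deviations over the median, which in these data means about 38% or higher of GMNN control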

TGFBRAP1 #1 showed G2 robust z-score 1.99; G2 cells, % of GMNN control 17; inactive.
Against TGFBRAP1 #2, the entry reads G2 robust z-score 0.0904; G2 cells, % of GMNN control 3.6; inactive.
For TGFBRAP1 #3, the entry reads G2 robust z-score -0.487; G2 cells, % of GMNN control -0.456; inactive.
Knock-down of PRAC1 #1 gave: G2 robust z-score -0.433; G2 cells, % of GMNN control -0.0764; inactive.
For PRAC1 #2, the values are G2 robust z-score 10; G2 cells, % of GMNN control 73.5; active.
Against PRAC1 #3, the values are G2 robust z-score 0.108; G2 cells, % of GMNN control 3.73; inactive.
OR51S1 #1 showed G2 robust z-score 0.483; G2 cells, % of GMNN control 6.36; inactive.
Silencing of OR51S1 #2 came out at: G2 robust z-score -0.304; G2 cells, % of GMNN control 0.827; inactive.
With knock-down of OR51S1 #3, the record shows G2 robust z-score -0.876; G2 cells, % of GMNN control -3.2; inactive.
Against LARP1 #1, the entry reads G2 robust z-score 3.55; G2 cells, % of GMNN control 27.9; inactive.
Against LARP1 #2, the values are G2 robust z-score -0.467; G2 cells, % of GMNN control -0.319; inactive.
After knock-down of LARP1 #3, the screen gave G2 robust z-score 0.048; G2 cells, % of GMNN control 3.31; inactive.
Against GRIN2C #1, the values are G2 robust z-score -0.643; G2 cells, % of GMNN control -1.56; inactive.
For GRIN2C #2, the values are G2 robust z-score 2.61; G2 cells, % of GMNN control 21.4; inactive.
Knock-down of GRIN2C #3 resulted in: G2 robust z-score -0.115; G2 cells, % of GMNN control 2.16; inactive.
For ZCCHC17 #1, the entry reads G2 robust z-score -1.44; G2 cells, % of GMNN control -7.18; inactive.
ZCCHC17 #2 showed G2 robust z-score 0.689; G2 cells, % of GMNN control 7.82; inactive.
ZCCHC17 #3 scored G2 robust z-score 1.71; G2 cells, % of GMNN control 15; inactive.
ZDHHC24 #1 scored G2 robust z-score 1.55; G2 cells, % of GMNN control 13.9; inactive.
ZDHHC24 #2 scored G2 robust z-score 1.21; G2 cells, % of GMNN control 11.5; inactive.
Against ZDHHC24 #3, the values are G2 robust z-score 3.09; G2 cells, % of GMNN control 24.7; inactive.
With knock-down of SLC4A5 #1 the results were G2 robust z-score 4.09; G2 cells, % of GMNN control 31.7; inactive.
Knock-down of SLC4A5 #2 resulted in: G2 robust z-score -0.117; G2 cells, % of GMNN control 2.14; inactive.
Against SLC4A5 #3, the values are G2 robust z-score -0.748; G2 cells, % of GMNN control -2.3; inactive.

Records above with an active call:
PRAC1 #2 — G2 robust z-score: 10; G2 cells, % of GMNN control: 73.5; call: active
